Source: paper doi:10.1101/2022.06.13.495990
These are yes or no findings as the source states them, for the method shown. Binding seen in cells or lysates may run through a third protein. A yes stands for co-enrichment or nearness to the bait. Other partners may have been found. No binding means not detected with the bait. Tags and fused reporters may be left off the sequences shown.

By UniProt entry, the sequences of proteins in these tests, tags left out.
UniProt P70297: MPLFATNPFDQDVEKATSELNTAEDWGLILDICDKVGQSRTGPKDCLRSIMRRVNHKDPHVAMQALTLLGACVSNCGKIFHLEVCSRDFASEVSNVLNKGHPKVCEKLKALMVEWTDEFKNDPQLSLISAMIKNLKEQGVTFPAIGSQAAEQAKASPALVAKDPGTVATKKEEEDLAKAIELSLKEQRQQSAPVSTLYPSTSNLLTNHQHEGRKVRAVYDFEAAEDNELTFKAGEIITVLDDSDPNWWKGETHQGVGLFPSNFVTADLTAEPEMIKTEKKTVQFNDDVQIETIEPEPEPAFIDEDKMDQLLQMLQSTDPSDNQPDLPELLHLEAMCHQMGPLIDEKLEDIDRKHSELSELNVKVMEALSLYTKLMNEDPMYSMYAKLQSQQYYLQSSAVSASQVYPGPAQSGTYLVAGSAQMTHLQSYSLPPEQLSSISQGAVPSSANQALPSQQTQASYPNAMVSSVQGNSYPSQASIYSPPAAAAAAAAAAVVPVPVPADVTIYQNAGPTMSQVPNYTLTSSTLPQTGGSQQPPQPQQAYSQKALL
UniProt Q0V8S0: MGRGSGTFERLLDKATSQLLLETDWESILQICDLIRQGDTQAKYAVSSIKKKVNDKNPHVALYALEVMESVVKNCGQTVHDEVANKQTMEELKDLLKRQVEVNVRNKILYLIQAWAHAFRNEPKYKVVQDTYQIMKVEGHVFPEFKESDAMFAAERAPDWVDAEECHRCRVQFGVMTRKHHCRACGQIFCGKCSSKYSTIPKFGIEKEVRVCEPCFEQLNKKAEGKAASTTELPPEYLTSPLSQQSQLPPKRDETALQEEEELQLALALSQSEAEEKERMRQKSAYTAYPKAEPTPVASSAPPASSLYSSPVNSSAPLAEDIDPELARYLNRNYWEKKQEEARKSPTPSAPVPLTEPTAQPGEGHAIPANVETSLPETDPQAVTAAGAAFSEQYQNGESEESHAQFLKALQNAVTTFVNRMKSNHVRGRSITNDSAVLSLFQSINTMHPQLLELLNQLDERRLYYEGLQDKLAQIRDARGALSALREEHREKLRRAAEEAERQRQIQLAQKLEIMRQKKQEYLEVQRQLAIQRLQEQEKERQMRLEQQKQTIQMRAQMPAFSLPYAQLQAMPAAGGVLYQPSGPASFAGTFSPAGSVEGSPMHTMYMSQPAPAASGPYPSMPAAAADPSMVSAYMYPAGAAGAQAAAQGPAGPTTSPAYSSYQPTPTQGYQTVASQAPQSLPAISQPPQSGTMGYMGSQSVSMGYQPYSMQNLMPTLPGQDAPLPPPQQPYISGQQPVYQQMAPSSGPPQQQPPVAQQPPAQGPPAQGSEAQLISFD
UniProt Q99LI8: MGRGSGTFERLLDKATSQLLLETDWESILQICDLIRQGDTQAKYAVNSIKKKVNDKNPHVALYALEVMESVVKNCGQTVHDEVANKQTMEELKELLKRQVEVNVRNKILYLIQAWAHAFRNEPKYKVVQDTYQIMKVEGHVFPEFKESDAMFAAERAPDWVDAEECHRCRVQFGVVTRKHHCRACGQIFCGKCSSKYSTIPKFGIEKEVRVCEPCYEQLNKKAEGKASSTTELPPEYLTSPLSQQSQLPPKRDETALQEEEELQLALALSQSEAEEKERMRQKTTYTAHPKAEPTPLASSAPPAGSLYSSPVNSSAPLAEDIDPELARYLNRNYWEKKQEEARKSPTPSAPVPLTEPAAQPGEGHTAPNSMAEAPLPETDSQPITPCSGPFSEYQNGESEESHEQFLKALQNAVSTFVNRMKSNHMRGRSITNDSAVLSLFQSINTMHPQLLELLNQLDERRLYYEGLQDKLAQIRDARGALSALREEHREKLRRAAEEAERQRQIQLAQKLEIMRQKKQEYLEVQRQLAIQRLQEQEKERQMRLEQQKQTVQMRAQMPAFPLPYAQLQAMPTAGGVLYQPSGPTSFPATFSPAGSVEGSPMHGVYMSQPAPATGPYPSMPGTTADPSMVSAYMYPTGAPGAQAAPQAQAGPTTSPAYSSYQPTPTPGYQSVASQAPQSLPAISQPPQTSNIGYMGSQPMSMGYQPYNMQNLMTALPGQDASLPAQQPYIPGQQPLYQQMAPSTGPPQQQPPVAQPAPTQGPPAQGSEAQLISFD

What was measured:
Assay in all cases: affinity purification with mass spectrometry
[1] = target: T1, Cilia- and Flagella-Associated Protein 418 (CFAP418), endogenous in mouse retina (mouse (endogenous in mouse retina)) (UniProt Q3UJP5)
T1 sequence: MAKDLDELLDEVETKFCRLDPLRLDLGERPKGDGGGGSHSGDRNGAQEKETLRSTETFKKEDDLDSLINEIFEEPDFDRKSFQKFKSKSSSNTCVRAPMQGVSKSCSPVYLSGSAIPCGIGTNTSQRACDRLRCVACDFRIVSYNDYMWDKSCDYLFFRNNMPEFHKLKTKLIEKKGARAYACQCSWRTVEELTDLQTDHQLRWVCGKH

[2] = target: T2, GST-tagged mouse CFAP418 full-length (mouse) (UniProt Q3UJP5)
T2 sequence: T1 sequence

[3] = target: T3, GST-tagged mouse CFAP418 C-terminal bait (169-209 aa) (mouse) (UniProt Q3UJP5)
T3 sequence: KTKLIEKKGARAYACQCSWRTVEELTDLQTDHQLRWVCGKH

| binding [1] | binding [2] | binding [3] | Substance |
| --- | --- | --- | --- |
| no binding |  |  | STAM (signal transducing adaptor molecule), endogenous in mouse retina (from UniProt P70297 1-548) |
|  | no binding | no binding | HGS, endogenous in bovine retina (from UniProt Q0V8S0 1-777) |
| no binding |  |  | HGS (hepatocyte growth factor-regulated tyrosine kinase substrate), endogenous in mouse retina (from UniProt Q99LI8 1-775) |
|  | no binding | no binding | STAM, endogenous in bovine retina |
